{"source": "the supplement of paper PMC12889115", "system": "Salmonella enterica serovar Typhimurium SL1344", "assay": "bacterial growth OD600 after 18 h with compound and polymyxin B; higher = more bacterial growth (less inhibition)", "settings": "50 µM, Mueller-Hinton broth", "note": "The list shows a part of the results. These are raw signals, not scaled to a control.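 Primary screen: polymyxin B was added at a level permeabilizing Salmonella outer membranes while sparing inner membranes. DMSO wells, both with and without polymyxin B, established maximum growth. Plate-to-plate variation meant each plate was ranked on its own, and the lowest-OD600 compounds were selected as hits.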"}
{"smiles": "CCN(Cc1cnn(C(C)C)c1)CC1CCCN(CCc2cccc(OC)c2)C1", "note": "(centres undefined)", "values": [{"measurement": "bacterial growth OD600", "setting": "polymyxin B 1 µg/mL", "value": 0.768}]}
{"smiles": "CN(C(=O)c1cccnc1)C(Cc1ccc(F)cc1F)C1CCN(C(=O)/C=C/c2ccccc2)CC1", "note": "(centres undefined)", "values": [{"measurement": "bacterial growth OD600", "setting": "polymyxin B 0.75 µg/mL", "value": 0.009}]}
{"smiles": "CCOC(=O)N1CCN(C(=O)c2ccc(N3CCC(N4CCCC(O)C4)CC3)cc2)CC1", "note": "(centres undefined)", "values": [{"measurement": "bacterial growth OD600", "setting": "polymyxin B 0.75 µg/mL", "value": 0.892}]}
{"smiles": "COc1cccc(CC2(CCC(=O)N(C)CCC34CC5CC(CC(C5)C3)C4)CCC(=O)N2)c1", "note": "(centres undefined)", "values": [{"measurement": "bacterial growth OD600", "setting": "polymyxin B 0.75 µg/mL", "value": 0.068}]}
{"smiles": "CC(=O)c1ccc(F)c(-c2cc(C)cc3c2OC(CNC(=O)C2(C)CC2)C3)c1", "note": "(centres undefined)", "values": [{"measurement": "bacterial growth OD600", "setting": "polymyxin B 0.75 µg/mL", "value": 0.612}]}
{"smiles": "O=C(NCCC1=CCCCC1)c1coc(COc2ccccc2)n1", "values": [{"measurement": "bacterial growth OD600", "setting": "polymyxin B 1 µg/mL", "value": 0.002}]}
{"smiles": "COc1ccc(CNC(=O)CCC2CCCN(Cc3nc4ccccc4n3C)C2)c(OC)c1", "note": "(centres undefined)", "values": [{"measurement": "bacterial growth OD600", "setting": "polymyxin B 1 µg/mL", "value": 0.843}]}
{"smiles": "COc1ccc(CCN2CC(NC(=O)CC3=CCCCC3)CC2=O)cc1", "note": "(centres undefined)", "values": [{"measurement": "bacterial growth OD600", "setting": "polymyxin B 1 µg/mL", "value": 0.853}]}
{"smiles": "O=C(CCOc1ccccc1)Nc1cnn(CC(=O)NC(Cn2cccn2)c2ccccc2)c1", "note": "(centres undefined)", "values": [{"measurement": "bacterial growth OD600", "setting": "polymyxin B 0.75 µg/mL", "value": 0.957}]}
{"smiles": "O=C(NC1CC(=O)N(CCCc2ccccc2)C1)c1ccsc1", "note": "(centres undefined)", "values": [{"measurement": "bacterial growth OD600", "setting": "polymyxin B 1 µg/mL", "value": 1.19}]}
{"smiles": "O=C(Nc1cccc(-n2cccn2)c1)C1CCCN1CC1CC1", "note": "(centres undefined)", "values": [{"measurement": "bacterial growth OD600", "setting": "polymyxin B 1 µg/mL", "value": 0.996}]}
{"smiles": "Cc1cnc(SCCN2CCOCC2)nc1C1CCCN(C(=O)COc2ccccc2Cl)C1", "note": "(centres undefined)", "values": [{"measurement": "bacterial growth OD600", "setting": "polymyxin B 0.75 µg/mL", "value": 0.499}]}
{"smiles": "O=C(NC(C1CC1)C1CC1)C1CCCN(C2CCN(Cc3ccccc3)CC2)C1", "note": "(centres undefined)", "values": [{"measurement": "bacterial growth OD600", "setting": "polymyxin B 0.75 µg/mL", "value": 0.876}]}
{"smiles": "COc1ccc(C(CC(=O)N2CCC(C(N)=O)CC2)c2ccccc2)cc1", "note": "(centres undefined)", "values": [{"measurement": "bacterial growth OD600", "setting": "polymyxin B 1 µg/mL", "value": 0.809}]}
{"smiles": "CC(NC1CCN(c2ccc(NC(=O)c3cnccn3)cc2)CC1)c1cnn(-c2ccccc2)c1", "note": "(centres undefined)", "values": [{"measurement": "bacterial growth OD600", "setting": "polymyxin B 0.75 µg/mL", "value": 0.797}]}
{"smiles": "COCc1ccc(CN2CC[C@@H](N3CCN(c4ccccn4)CC3)[C@H](O)C2)o1", "values": [{"measurement": "bacterial growth OD600", "setting": "polymyxin B 1 µg/mL", "value": 1.03}]}
{"smiles": "CC(c1ccon1)N(C)C(=O)c1cc(Cn2ccc3ccccc32)[nH]n1", "note": "(centres undefined)", "values": [{"measurement": "bacterial growth OD600", "setting": "polymyxin B 1 µg/mL", "value": 0.899}]}
{"smiles": "O=C(c1cccnc1)N1CCC(C2CCN(Cc3ccc(Cl)cc3)C2)CC1", "note": "(centres undefined)", "values": [{"measurement": "bacterial growth OD600", "setting": "polymyxin B 1 µg/mL", "value": 0.944}]}
{"smiles": "CCn1ccnc1CN(C)c1nc2nonc2nc1NCc1cccs1", "values": [{"measurement": "bacterial growth OD600", "setting": "polymyxin B 1 µg/mL", "value": 0.907}]}
